Assays:
[1] = general procedure: Fmoc solid-phase peptide synthesis; 2-chlorotrityl resin (CC11006 by Carbolution); settings: conjugation step
[2] = general procedure: Fmoc solid-phase peptide synthesis; 2-chlorotrityl resin; settings: whole synthesis, of theoretical yield

Substance | conjugation yield [1] [%] | isolated yield [2]
TRAP(Tyr2)3, trimer of c[YRGDLAYp(NMe)K(pentynoic amide)] on TRAP chelator core | 36 | 
c[YRGDLAYp(NMe)K] |  | ≈ 20%

From PMC8460406 (European Journal of Nuclear Medicine and Molecular Imaging, 2021)
